At least one compound was matched to its structure with a doubt left.
System: gastric ulceration
Assay: Omeprazole treatment of study dogs with NSAID-induced gastric ulceration
Assay type: in vivo, dog
Settings: 0.5 to 1.0 mg/kg twice daily for 3 weeks

COc1ccc2[nH]c([S+]([O-])Cc3ncc(C)c(OC)c3C)nc2c1 (centres unmarked) [omeprazole]
endoscopic assessment of ulceration after treatment (each dog): Resolution of ulceration was confirmed
Symptoms of gastric ulceration (vomiting, inappetence, abdominal pain, melaena, diarrhea) (with diet change): resolved within several days

Source: patent US20230108730A1, “BIENZYMATIC BIOSENSOR FOR THE DETECTION OF LACTULOSE IN BLOOD” (TRIVIUMVET DESIGNATED ACTIVITY COMPANY, priority 2020, published 2023)
